Results deposited as PubChem BioAssay AID1053208 (Peter MacCallum Cancer Centre, 2014).

Assay: 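Synthetic lethal interactions between gene loss and doxorubicin in osteosarcoma cells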 (primary screen)
Cells: mouse osteosarcoma cells, early-passage culture from an engineered mouse model of fibroblastic bone tumour
Knock-down reagent: siRNA pool against mouse genes, 40 nM
Time to read-out: about 120 h (48 h before drug, then 72 h with drug)
Challenge: doxorubicin 100 nM for 72 h, roughly 30-40% inhibitory dose
Measured: 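Luminescent ATP signal taken as viability with or without 100 nM doxorubicin for 72 h; mean of two wells set against non-targeting siRNA and turned into robust z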
Scale: viability z-score with doxorubicin and doxorubicin viability vs non-targeting: higher = more viable cells under doxorubicin; viability z-score without drug: higher = more viable cells with knock-down alone; z-score of drug to no-drug ratio: higher = less drug sensitisation by knock-down
Rule for the call: 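Called active if knock-down leaves viability unchanged without drug (z within -2 to 2) but lowers it with doxorubicin (z at or under -2)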
Here is one part, drawn at random, of about 17,000 reagents tested. 788 of them (4.7%) were called active. 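Calls rest on z-score classes alone; an extra cut-off of viability at most 70% of control was not applied to them.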 Reagents against one gene are numbered here. Some reagents were tested in more than one well and are listed for each.

Gene	reagent	combined z-score class	viability z-score with doxorubicin	viability z-score without drug	z-score of drug to no-drug ratio	doxorubicin viability vs non-targeting	Outcome
Phax (phosphorylated adaptor for RNA export)	1	no change with or without drug	-1.46	-0.51	-1.12	0.81	inactive
Mt4 (metallothionein 4)	1	no change with or without drug	-0.11	-1.18	0.9	0.93	inactive
Or11i1 (olfactory receptor family 11 subfamily I member 1)	1	no change with or without drug	-0.22	0.51	-0.45	0.92	inactive
Kif9 (kinesin family member 9)	1	no change with or without drug	0	-0.17	0.22	0.94	inactive
Adam21 (a disintegrin and metallopeptidase domain 21)	1	no change with or without drug	-0.45	-0.17	-0.22	0.9	inactive
Pop5	1	no change with or without drug	0.22	-0.17	0.45	0.96	inactive
Pltp (phospholipid transfer protein)	1	no change with or without drug	-0.22	0.51	-0.45	0.92	inactive
Fibp	1	no change with or without drug	0.45	0.67	0.11	0.98	inactive
Cmc1 (C-X9-C motif containing 1)	1	no change with or without drug	-1.12	0	-1.12	0.84	inactive
Taf7 (TATA-box binding protein associated factor 7)	1	low cell count without drug only	-1.46	-2.19	0.11	0.81	inactive
Prkca (protein kinase C, alpha)	1	no change with or without drug	1.57	1.18	0.9	1.08	inactive
Or51d1 (olfactory receptor family 51 subfamily D member 1)	1	no change with or without drug	1.57	-0.17	1.91	1.08	inactive
S1pr5 (sphingosine-1-phosphate receptor 5)	1	low cell count with and without drug	-2.7	-2.53	-1.24	0.7	inactive
Gch1 (GTP cyclohydrolase 1)	1	no change with or without drug	0	0.17	0	0.94	inactive
Gm5105 (predicted gene 5105)	1	no change with or without drug	1.57	0.84	1.12	1.08	inactive
Exosc8 (exosome component 8)	1	no change with or without drug	0.79	1.18	0.11	1.01	inactive
Klk1b1 (kallikrein 1-related peptidase b1)	1	no change with or without drug	0.22	0.51	0	0.96	inactive
Gapdh (glyceraldehyde-3-phosphate dehydrogenase)	1	no change with or without drug	-1.12	-0.34	-0.9	0.84	inactive
Gapdh (glyceraldehyde-3-phosphate dehydrogenase)	2	low cell count without drug only	-1.35	-2.02	0.11	0.82	inactive
Lrrk2 (leucine-rich repeat kinase 2)	1	high cell count with doxorubicin only	2.36	1.18	1.69	1.15	inactive
Lrrk2 (leucine-rich repeat kinase 2)	1	no change with or without drug	-0.45	0.84	-0.9	0.9	inactive
Ms4a4b (membrane-spanning 4-domains, subfamily A, member 4B)	1	high cell count with doxorubicin only	2.47	1.85	1.24	1.16	inactive
Ablim1 (actin-binding LIM protein 1)	1	no change with or without drug	-0.22	1.52	-1.12	0.92	inactive
Vdr (vitamin D (1,25-dihydroxyvitamin D3) receptor)	1	no change with or without drug	0.67	0.84	0.22	1	inactive
Api5 (apoptosis inhibitor 5)	1	low cell count with doxorubicin only	-2.59	-0.84	-2.14	0.71	active
3830403N18Rik (RIKEN cDNA 3830403N18 gene)	1	no change with or without drug	1.24	0.34	1.12	1.05	inactive
Cngb1 (cyclic nucleotide gated channel beta 1)	1	low cell count with doxorubicin only	-2.02	-0.51	-1.69	0.76	active
Cngb1 (cyclic nucleotide gated channel beta 1)	2	no change with or without drug	0.56	-0.51	1.12	0.99	inactive
Relb (Relb proto-oncogene, NFKB subunit)	1	low cell count with doxorubicin only	-2.02	-1.52	-1.12	0.76	active
Bmpr1a (bone morphogenetic protein receptor, type 1A)	1	no change with or without drug	-0.67	-0.51	-0.22	0.88	inactive
Pheta2 (PH domain containing endocytic trafficking adaptor 2)	1	no change with or without drug	0	0.17	0	0.94	inactive
Ide (insulin degrading enzyme)	1	no change with or without drug	-0.9	-1.52	0.22	0.86	inactive
Tulp3 (TUB like protein 3)	1	no change with or without drug	-0.79	0	-0.67	0.87	inactive
Nfix (nuclear factor I/X)	1	no change with or without drug	1.12	0	1.24	1.04	inactive
Gpr137b (G protein-coupled receptor 137B)	1	no change with or without drug	0.9	-0.51	1.46	1.02	inactive
Ifna2 (interferon alpha 2)	1	no change with or without drug	0.9	-0.84	1.69	1.02	inactive
Zfp180 (zinc finger protein 180)	1	low cell count without drug only	-0.9	-2.53	1.01	0.86	inactive
Ung (uracil DNA glycosylase)	1	low cell count with doxorubicin only	-2.02	-1.18	-1.35	0.76	active
Reps1 (RalBP1 associated Eps domain containing protein)	1	no change with or without drug	-1.69	-1.85	-0.45	0.79	inactive
Or1e22 (olfactory receptor family 1 subfamily E member 22)	1	no change with or without drug	-0.67	-0.17	-0.45	0.88	inactive
Vmn1r28 (vomeronasal 1 receptor 28)	1	no change with or without drug	-1.46	-0.51	-1.12	0.81	inactive
Ryr3 (ryanodine receptor 3)	1	high cell count without drug only	1.12	2.87	-0.56	1.04	inactive
9330169L03Rik (RIKEN cDNA 9330169L03 gene)	1	no change with or without drug	-1.57	-1.69	-0.45	0.8	inactive
Anp32b (acidic nuclear phosphoprotein 32 family member B)	1	no change with or without drug	-0.56	-0.17	-0.34	0.89	inactive
Defa-rs12 (defensin, alpha, related sequence 12)	1	no change with or without drug	1.01	0.84	0.56	1.03	inactive
Or5bw2 (olfactory receptor family 5 subfamily BW member 2)	1	no change with or without drug	0.9	-0.17	1.24	1.02	inactive
Prkd2 (protein kinase D2)	1	no change with or without drug	0.22	-0.51	0.67	0.96	inactive
Zfp65 (zinc finger protein 65)	1	no change with or without drug	1.35	0.84	0.9	1.06	inactive
Ubxn7 (UBX domain protein 7)	1	no change with or without drug	1.12	0.67	0.79	1.04	inactive
Rab11b (RAB11B, member RAS oncogene family)	1	no change with or without drug	-0.22	-0.51	0.22	0.92	inactive
Rab11b (RAB11B, member RAS oncogene family)	2	no change with or without drug	-1.35	-0.17	-1.24	0.82	inactive

8 entries already listed, arranged by “z-score of drug to no-drug ratio”, ascending:
Gene	reagent	combined z-score class	viability z-score with doxorubicin	viability z-score without drug	z-score of drug to no-drug ratio	doxorubicin viability vs non-targeting	Outcome
S1pr5 (sphingosine-1-phosphate receptor 5)	1	low cell count with and without drug	-2.7	-2.53	-1.24	0.7	inactive
Cmc1 (C-X9-C motif containing 1)	1	no change with or without drug	-1.12	0	-1.12	0.84	inactive
Gch1 (GTP cyclohydrolase 1)	1	no change with or without drug	0	0.17	0	0.94	inactive
Fibp	1	no change with or without drug	0.45	0.67	0.11	0.98	inactive
Taf7 (TATA-box binding protein associated factor 7)	1	low cell count without drug only	-1.46	-2.19	0.11	0.81	inactive
Prkca (protein kinase C, alpha)	1	no change with or without drug	1.57	1.18	0.9	1.08	inactive
Gm5105 (predicted gene 5105)	1	no change with or without drug	1.57	0.84	1.12	1.08	inactive
Or51d1 (olfactory receptor family 51 subfamily D member 1)	1	no change with or without drug	1.57	-0.17	1.91	1.08	inactive
